Record: PubChem BioAssay AID1259331 (Drosophila RNAi Screening Center, 2017)
The whole screen tested about 3,100 reagents; shown is a part drawn at random. In the full data, 126 (4.1%) got an active call. 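Calls are per reagent; zinc was so toxic that few knock-downs lowered ATP further, so most hits raise ATP.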 The raw values are shown without normalisation. A number with no mark means an inactive call. Names joined by + are all predicted targets of the reagent. The record does not give: the amount of reagent.

- Purpose: 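Fly transmembrane-protein genes that affect zinc toxicity in cultured cells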 (primary screen)
- Cell system: Drosophila S2R+ cells
- Reagent: long dsRNA against Drosophila genes
- Time to read-out: 5 days (4 days knock-down, then 1 day zinc)
- Challenge: zinc chloride at 15 mM final level for 1 day
- Measured: 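Total cellular ATP measured by luciferase luminescence as a viability proxy, turned into Z scores from three plate copies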
- Direction: mean Z score: higher = more ATP than other wells, better survival under zinc; ATP luminescence: higher = more ATP, more viable cells
- Hit rule: 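Hit when the absolute Z score is greater than 1.5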
- Meaning of the calls: active = hit, ATP up or down; inactive = not a hit

| target gene | amplicon | mean Z score | ATP luminescence, replicate 1 | ATP luminescence, replicate 2 |
| --- | --- | --- | --- | --- |
| stet | DRSC08246 | -0.00401 | 67879 | 70973 |
| stet | DRSC08283 | 1.43 | 57219 | 61335 |
| schlank | DRSC18102 | -0.693 | 53087 | 56071 |
| ppk24 | DRSC15093 | 0.378 | 69224 | 75467 |
| ppk24 | DRSC39805 | 0.0401 | 57295 | 56242 |
| Or85b | DRSC16765 | -0.631 | 33079 | 46674 |
| Or85b | DRSC39611 | -0.266 | 53241 | 57099 |
| CG32280 | DRSC08024 | -0.793 | 30233 | 34810 |
| CG32280 | DRSC39889 | -0.279 | 52452 | 58144 |
| Tim17a2 | DRSC12252 | 1.12 | 95983 | 80132 |
| Tim17a2 | DRSC23837 | 2.31 (active) | 82276 | 87028 |
| Sec24CD | DRSC00300 | -1.03 | 43588 | 39508 |
| CG5326 | DRSC13568 | 0.689 | 37999 | 67715 |
| CG5326 | DRSC23719 | 1.56 (active) | 72517 | 79463 |
| ABCB7 | DRSC08603 | 0.701 | 81722 | 76445 |
| Or49b | DRSC07494 | -0.532 | 69716 | 66070 |
| fz3 | DRSC18779 | -0.54 | 57614 | 56551 |
| fz3 | DRSC29682 | -0.534 | 54544 | 51749 |
| bark | DRSC00635 | -0.13 | 50703 | 43942 |
| bark | DRSC27011 | 0.0622 | 54750 | 65645 |
| out | DRSC19347 | -0.479 | 40331 | 41685 |
| out | DRSC28913 | 0.0921 | 63136 | 62484 |
| pHCl-2 | DRSC14306 | 0.266 | 73889 | 66960 |
| inc | DRSC17954 | -0.92 | 53464 | 48063 |
| inc | DRSC28898 | -0.14 | 61952 | 56482 |
| CG15880 | DRSC00474 | -0.562 | 37330 | 40963 |
| CG15880 | DRSC39795 | -0.513 | 49280 | 48653 |
| Or92a | DRSC16771 | -0.213 | 41942 | 55539 |
| Ca-Ma2d | DRSC29730 | 0.16 | 50086 | 52641 |
| CG17821 | DRSC06696 | 0.754 | 68953 | 91420 |
| CG17821 | DRSC39871 | 0.0938 | 65056 | 61834 |
| CCKLR-17D3 | DRSC20017 | -0.888 | 32444 | 35599 |
| CCKLR-17D3 | DRSC23715 | -0.648 | 50875 | 49692 |
| CG31213 | DRSC14312 | -0.277 | 38521 | 42693 |
| CG31213 | DRSC15647 | -0.126 | 34502 | 54767 |
| CG4301 | DRSC19886 | 0.0832 | 67886 | 66961 |
| CG4301 | DRSC39420 | -0.417 | 49075 | 45080 |
| CG43373 | DRSC09869 | 0.0132 | 74884 | 61884 |
| Or24a | DRSC00768 | -0.23 | 45988 | 34559 |
| brv2 | DRSC10226 | -0.423 | 66857 | 53035 |
| brv2 | DRSC29796 | -0.148 | 49503 | 43526 |
| Sur-8 | DRSC15794 | 0.69 | 42371 | 71042 |
| BBIP1 + CG8135 | DRSC16384 | 0.296 | 40382 | 60941 |
| BBIP1 + CG8135 | DRSC26052 | 0.497 | 57382 | 67290 |
| KaiR1D | DRSC15516 | -0.195 | 33679 | 47874 |
| ATPsynbetaL | DRSC10503 | 0.24 | 85464 | 69087 |
| ATPsynbetaL | DRSC24354 | -0.186 | 54304 | 60889 |
| msk | DRSC11340 | -0.439 | 25915 | 28039 |
| msk | DRSC23929 | 0.556 | 63633 | 64113 |
| CG43693 | DRSC09086 | -0.0591 | 41548 | 43348 |
| CG43693 | DRSC10625 | -0.556 | 27302 | 29496 |
| ItgaPS5 | DRSC04501 | 0.267 | 52658 | 39508 |
| ItgaPS5 | DRSC28842 | -0.0784 | 61884 | 58454 |
| CCHa1-R | DRSC06456 | -0.0243 | 42193 | 43297 |
| CCHa1-R | DRSC06715 | -0.428 | 68023 | 63531 |
| CG7530 | DRSC25476 | 0.0352 | 58077 | 56568 |
| CG7530 | DRSC39584 | -0.0583 | 55693 | 53841 |
| Tsp42Ea | DRSC04982 | 0.527 | 95966 | 79755 |
| Tsp42Ea | DRSC06792 | -0.325 | 78537 | 71231 |
| CG16904 | DRSC15161 | -0.476 | 39610 | 42216 |
| CG16904 | DRSC25306 | 0.104 | 62467 | 63547 |
| ppk6 | DRSC06062 | 0.0857 | 66372 | 74283 |
| ppk6 | DRSC39881 | -0.43 | 50121 | 56293 |
| uzip | DRSC04722 | 0.471 | 33302 | 34553 |
| uzip | DRSC30045 | -0.403 | 44184 | 44360 |
| GC2 | DRSC14476 | -0.227 | 36696 | 57087 |
| GC2 | DRSC27370 | 0.659 | 69858 | 69057 |
| Sc2 | DRSC08162 | -0.281 | 29898 | 27405 |
| Sc2 | DRSC26153 | 0.161 | 57768 | 58934 |
| dsb | DRSC08542 | 0.0245 | 71812 | 74421 |
| hoe1 | DRSC00265 | 0.156 | 59466 | 57305 |
| hoe1 | DRSC00353 | -0.963 | 37656 | 37845 |
| Vha100-4 | DRSC16282 | 0.054 | 36936 | 59569 |
| Vha100-4 | DRSC26139 | 0.775 | 63393 | 64936 |
| CG10804 | DRSC17764 | -0.14 | 43999 | 42525 |
| CG10804 | DRSC39540 | -0.0362 | 48217 | 51857 |
| CG43066 | DRSC06927 | 0.352 | 72158 | 77371 |
| CG43066 | DRSC26570 | -1.03 | 46760 | 38273 |
| CG7720 | DRSC16306 | 0.724 | 48594 | 58111 |
| CG7720 | DRSC16307 | 0.0269 | 49143 | 39250 |
| Zdhhc8 | DRSC18122 | 2.41 (active) | 1.09e5 | 1.03e5 |
| Zdhhc8 | DRSC39517 | 1.26 | 76462 | 62227 |
| sesB | DRSC20371 | -0.488 | 59374 | 56516 |
| sesB | DRSC29874 | -0.559 | 40571 | 43228 |
| MFS12 | DRSC07268 | 0.169 | 26539 | 34553 |
| CG31693 | DRSC03674 | -0.348 | 36576 | 40639 |
| CG31693 | DRSC39586 | -0.0992 | 62673 | 54108 |

Called active (from the list above):
| target gene | amplicon | mean Z score | ATP luminescence, replicate 1 | ATP luminescence, replicate 2 |
| --- | --- | --- | --- | --- |
| Tim17a2 | DRSC23837 | 2.31 (active) | 82276 | 87028 |
| CG5326 | DRSC23719 | 1.56 (active) | 72517 | 79463 |
| Zdhhc8 | DRSC18122 | 2.41 (active) | 1.09e5 | 1.03e5 |
